This passage reports IC50 results from article PMC2361662 (British Journal of Cancer, 2005).

The subject of this assay is PLC-γ, AKT, ERK, STAT3. In words: cells. The conditions noted are these: read-out: Average IC50 of signalling molecule phosphorylation site inhibition. The protocol:
For determination of phosphorylated proteins, 5 μg whole cell lysate from serum-starved cells was resolved by SDS–PAGE and electroblotted onto nitrocellulose membranes. After transfer and blocking in 5% nonfat milk, primary antibody staining was carried out by incubation overnight at 4°C, and secondary antibody staining was for 1 h at room temperature. The chemiluminescence detection method (ECL) was used for all Western blot experiments.
Extracellular regulated kinase-1 and -2 (ERK-2), phospholipase C γ (PLC-γ), protein kinase B (AKT) and the signal transducer and activator of transcription 3 (STAT3) are all essential downstream targets of EGFR and mediate many of its oncogenic effects.
Figure 3 (A) Phosphorylation of key signalling molecules upon EGF (10 nM for 10 min) stimulation in the four cell lines.

`COc1cc2ncnc(Nc3ccc(F)c(Cl)c3)c2cc1OCCCN1CCOCC1` [gefitinib]: the IC50 came to 11 nM.
